No constants are given. Whether binding was seen depends on the method and setting. Binding seen in cells or lysates may run through a third protein. These calls come from enrichment with a bait or labelling near it, and not all partners need be listed. A no says only that the protein was not detected with the bait.
B1: THOC1 (protein, UniProt Q96FV9 1-657)
chain: MSPTPPLFSLPEARTRFTKSTREALNNKNIKPLLSTFSQVPGSENEKKCTLDQAFRGILEEEIINHSSCENVLAIISLAIGGVTEGICTASTPFVLLGDVLDCLPLDQCDTIFTFVEKNVATWKSNTFYSAGKNYLLRMCNDLLRRLSKSQNTVFCGRIQLFLARLFPLSEKSGLNLQSQFNLENVTVFNTNEQESTLGQKHTEDREEGMDVEEGEMGDEEAPTTCSIPIDYNLYRKFWSLQDYFRNPVQCYEKISWKTFLKYSEEVLAVFKSYKLDDTQASRKKMEELKTGGEHVYFAKFLTSEKLMDLQLSDSNFRRHILLQYLILFQYLKGQVKFKSSNYVLTDEQSLWIEDTTKSVYQLLSENPPDGERFSKMVEHILNTEENWNSWKNEGCPSFVKERTSDTKPTRIIRKRTAPEDFLGKGPTKKILMGNEELTRLWNLCPDNMEACKSETREHMPTLEEFFEEAIEQADPENMVENEYKAVNNSNYGWRALRLLARRSPHFFQPTNQQFKSLPEYLENMVIKLAKELPPPSEEIKTGEDEDEEDNDALLKENESPDVRRDKPVTGEQIEVFANKLGEQWKILAPYLEMKDSEIRQIECDSEDMKMRAKQLLVAWQDQEGVHATPENLINALNKSGLSDLAESLTNDNETNS
B2: THOC3 (protein, UniProt Q96J01 1-351)
chain: MAVPAAAMGPSALGQSGPGSMAPWCSVSSGPSRYVLGMQELFRGHSKTREFLAHSAKVHSVAWSCDGRRLASGSFDKTASVFLLEKDRLVKENNYRGHGDSVDQLCWHPSNPDLFVTASGDKTIRIWDVRTTKCIATVNTKGENINICWSPDGQTIAVGNKDDVVTFIDAKTHRSKAEEQFKFEVNEISWNNDNNMFFLTNGNGCINILSYPELKPVQSINAHPSNCICIKFDPMGKYFATGSADALVSLWDVDELVCVRCFSRLDWPVRTLSFSHDGKMLASASEDHFIDIAEVETGDKLWEVQCESPTFTVAWHPKRPLLAFACDDKDGKYDSSREAGTVKLFGLPNDS
B3: THOC5 (protein, UniProt Q13769 1-683)
chain: MSSESSKKRKPKVIRSDGAPAEGKRNRSDTEQEGKYYSEEAEVDLRDPGRDYELYKYTCQELQRLMAEIQDLKSRGGKDVAIEIEERRIQSCVHFMTLKKLNRLAHIRLKKGRDQTHEAKQKVDAYHLQLQNLLYEVMHLQKEITKCLEFKSKHEEIDLVSLEEFYKEAPPDISKAEVTMGDPHQQTLARLDWELEQRKRLAEKYRECLSNKEKILKEIEVKKEYLSSLQPRLNSIMQASLPVQEYLFMPFDQAHKQYETARHLPPPLYVLFVQATAYGQACDKTLSVAIEGSVDEAKALFKPPEDSQDDESDSDAEEEQTTKRRRPTLGVQLDDKRKEMLKRHPLSVMLDLKCKDDSVLHLTFYYLMNLNIMTVKAKVTTAMELITPISAGDLLSPDSVLSCLYPGDHGKKTPNPANQYQFDKVGILTLSDYVLELGHPYLWVQKLGGLHFPKEQPQQTVIADHSLSASHMETTMKLLKTRVQSRLALHKQFASLEHGIVPVTSDCQYLFPAKVVSRLVKWVTVAHEDYMELHFTKDIVDAGLAGDTNLYYMALIERGTAKLQAAVVLNPGYSSIPPVFQLCLNWKGEKTNSNDDNIRAMEGEVNVCYKELCGPWPSHQLLTNQLQRLCVLLDVYLETESHDDSVEGPKEFPQEKMCLRLFRGPSRMKPFKYNHPQGFFSHR
B4: THOC6 (protein, UniProt Q86W42 1-341)
chain: MERAVPLAVPLGQTEVFQALQRLHMTIFSQSVSPCGKFLAAGNNYGQIAIFSLSSALSSEAKEESKKPVVTFQAHDGPVYSMVSTDRHLLSAGDGEVKAWLWAEMLKKGCKELWRRQPPYRTSLEVPEINALLLVPKENSLILAGGDCQLHTMDLETGTFTRVLRGHTDYIHCLALRERSPEVLSGGEDGAVRLWDLRTAKEVQTIEVYKHEECSRPHNGRWIGCLATDSDWMVCGGGPALTLWHLRSSTPTTIFPIRAPQKHVTFYQDLILSAGQGRCVNQWQLSGELKAQVPGSSPGLLSLSLNQQPAAPECKVLTAAGNSCRVDVFTNLGYRAFSLSF
B5: POLDIP3 (protein, UniProt Q9BY77 1-421)
chain: MADISLDELIRKRGAAAKGRLNARPGVGGVRSRVGIQQGLLSQSTRTATFQQRFDARQKIGLSDARLKLGVKDAREKLLQKDARFRIKGKVQDAREMLNSRKQQTTVPQKPRQVADAREKISLKRSSPAAFINPPIGTVTPALKLTKTIQVPQQKAMAPLHPHPAGMRINVVNNHQAKQNLYDLDEDDDGIASVPTKQMKFAASGGFLHHMAGLSSSKLSMSKALPLTKVVQNDAYTAPALPSSIRTKALTNMSRTLVNKEEPPKELPAAEPVLSPLEGTKMTVNNLHPRVTEEDIVELFCVCGALKRARLVHPGVAEVVFVKKDDAITAYKKYNNRCLDGQPMKCNLHMNGNVITSDQPILLRLSDSPSMKKESELPRRVNSASSSNPPAEVDPDTILKALFKSSGASVTTQPTEFKIKL
B6: NCBP3 (protein, UniProt Q53F19 1-620)
chain: MAAVRGLRVSVKAEAPAGPALGLPSPEAESGVDRGEPEPMEVEEGELEIVPVRRSLKELIPDTSRRYENKAGSFITGIDVTSKEAIEKKEQRAKRFHFRSEVNLAQRNVALDRDMMKKAIPKVRLETIYICGVDEMSTQDVFSYFKEYPPAHIEWLDDTSCNVVWLDEMTATRALINMSSLPAQDKIRSRDASEDKSAEKRKKDKQEDSSDDDEAEEGEVEDENSSDVELDTLSQVEEESLLRNDLRPANKLAKGNRLFMRFATKDDKKELGAARRSQYYMKYGNPNYGGMKGILSNSWKRRYHSRRIQRDVIKKRALIGDDVGLTSYKHRHSGLVNVPEEPIEEEEEEEEEEEEEEEEDQDMDADDRVVVEYHEELPALKQPRERSASRRSSASSSDSDEMDYDLELKMISTPSPKKSMKMTMYADEVESQLKNIRNSMRADSVSSSNIKNRIGNKLPPEKFADVRHLLDEKRQHSRPRPPVSSTKSDIRQRLGKRPHSPEKAFSSNPVVRREPSSDVHSRLGVPRQDSKGLYADTREKKSGNLWTRLGSAPKTKEKNTKKVDHRAPGAEEDDSELQRAWGALIKEKEQSRQKKSRLDNLPSLQIEVSRESSSGSEAES
B7: FYTTD1 (UIF) (protein, UniProt Q96QD9 1-318)
chain: MNRFGTRLVGATATSSPPPKARSNENLDKIDMSLDDIIKLNRKEGKKQNFPRLNRRLLQQSGAQQFRMRVRWGIQQNSGFGKTSLNRRGRVMPGKRRPNGVITGLAARKTTGIRKGISPMNRPPLSDKNIEQYFPVLKRKANLLRQNEGQRKPVAVLKRPSQLSRKNNIPANFTRSGNKLNHQKDTRQATFLFRRGLKVQAQLNTEQLLDDVVAKRTRQWRTSTTNGGILTVSIDNPGAVQCPVTQKPRLTRTAVPSFLTKREQSDVKKVPKGVPLQFDINSVGKQTGMTLNERFGILKEQRATLTYNKGGSRFVTVG
B8: SARNP (protein, UniProt P82979 1-210)
chain: MATETVELHKLKLAELKQECLARGLETKGIKQDLIHRLQAYLEEHAEEEANEEDVLGDETEEEETKPIELPVKEEEPPEKTVDVAAEKKVVKITSEIPQTERMQKRAERFNVPVSLESKKAARAARFGISSVPTKGLSSDNKPMVNLDKLKERAQRFGLNVSSISRKSEDDEKLKKRKERFGIVTSSAGTGTTEDTEAKKRKRAERFGIA
B9: THOC7 (protein, UniProt Q6I9Y2 1-204)
chain: MGAVTDDEVIRKRLLIDGDGAGDDRRINLLVKSFIKWCNSGSQEEGYSQYQRMLSTLSQCEFSMGKTLLVYDMNLREMENYEKIYKEIECSIAGAHEKIAECKKQILQAKRIRKNRQEYDALAKVIQHHPDRHETLKELEALGKELEHLSHIKESVEDKLELRRKQFHVLLSTIHELQQTLENDEKLSEVEEAQEASMETDPKP

Amino acid sequences for entries named in this document (tags omitted). A change or cut given only in a name is not applied to a line headed by its entry.
UniProt Q9BZZ5: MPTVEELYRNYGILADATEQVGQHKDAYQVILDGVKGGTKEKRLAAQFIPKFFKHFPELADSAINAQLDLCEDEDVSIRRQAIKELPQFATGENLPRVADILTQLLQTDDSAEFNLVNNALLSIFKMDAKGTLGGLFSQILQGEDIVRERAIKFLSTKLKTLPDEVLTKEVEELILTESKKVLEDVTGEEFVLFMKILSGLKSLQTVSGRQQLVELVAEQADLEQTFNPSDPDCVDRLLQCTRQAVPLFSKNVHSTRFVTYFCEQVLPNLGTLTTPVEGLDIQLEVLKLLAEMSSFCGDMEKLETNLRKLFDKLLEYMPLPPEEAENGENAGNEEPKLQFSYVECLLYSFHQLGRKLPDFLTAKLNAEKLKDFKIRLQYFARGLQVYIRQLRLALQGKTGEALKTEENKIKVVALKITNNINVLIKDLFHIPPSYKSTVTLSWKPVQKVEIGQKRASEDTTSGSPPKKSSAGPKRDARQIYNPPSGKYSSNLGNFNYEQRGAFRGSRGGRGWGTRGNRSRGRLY

What was measured:
[1] = target: FLAG-tagged API5 WT (human) (UniProt Q9BZZ5); test: affinity purification with mass spectrometry; immunoprecipitation of FLAG-tagged API5 WT or 4Mut reconstituted in API5 knockout cells, proteomics analysis; mock as control
[2] = target: FLAG-tagged API5 4Mut (D145A/E184A/D185A/E190A) (human) (UniProt Q9BZZ5); test: as above

| Binder | binding [1] | binding [2] |
| --- | --- | --- |
| B1 | binds | no binding |
| B2 | binds | no binding |
| B3 | binds | no binding |
| B4 | binds | no binding |
| B5 | binds | binds |
| B6 | binds | no binding |
| B7 | binds | no binding |
| B8 | binds | binds |
| B9 | no binding | – |
